# The list shows a part of the results. Most values lie at the level of the controls, where differences are scatter.
# Sequences of proteins named here, by UniProt entry; tags and fusion partners are left off. A change or cut given only in a name is not applied to a line headed by its entry.
# UniProt P31545: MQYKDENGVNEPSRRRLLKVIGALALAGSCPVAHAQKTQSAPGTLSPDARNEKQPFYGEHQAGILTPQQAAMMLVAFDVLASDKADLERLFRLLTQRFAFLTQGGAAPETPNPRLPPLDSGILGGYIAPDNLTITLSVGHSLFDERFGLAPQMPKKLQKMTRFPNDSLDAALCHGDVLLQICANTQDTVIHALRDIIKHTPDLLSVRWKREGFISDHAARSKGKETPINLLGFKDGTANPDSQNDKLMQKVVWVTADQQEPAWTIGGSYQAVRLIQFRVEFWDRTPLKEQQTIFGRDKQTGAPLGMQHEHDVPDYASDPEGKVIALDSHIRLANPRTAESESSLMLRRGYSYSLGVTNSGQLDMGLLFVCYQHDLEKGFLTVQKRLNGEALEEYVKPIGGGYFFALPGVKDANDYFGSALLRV
# UniProt P33590: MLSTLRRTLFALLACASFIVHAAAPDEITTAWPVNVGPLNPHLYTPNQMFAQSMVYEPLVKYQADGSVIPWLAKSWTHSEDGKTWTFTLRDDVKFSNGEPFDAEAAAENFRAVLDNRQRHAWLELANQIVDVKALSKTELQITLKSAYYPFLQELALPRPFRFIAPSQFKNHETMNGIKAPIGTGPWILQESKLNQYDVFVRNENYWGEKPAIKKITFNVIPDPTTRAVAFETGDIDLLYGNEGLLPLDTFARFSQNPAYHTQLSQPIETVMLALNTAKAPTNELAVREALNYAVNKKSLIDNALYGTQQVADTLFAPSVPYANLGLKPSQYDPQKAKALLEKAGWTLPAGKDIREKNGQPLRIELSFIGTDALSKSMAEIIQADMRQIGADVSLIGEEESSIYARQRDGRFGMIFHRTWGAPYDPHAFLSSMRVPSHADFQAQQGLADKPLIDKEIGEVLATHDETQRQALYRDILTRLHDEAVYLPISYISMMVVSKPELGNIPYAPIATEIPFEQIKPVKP
# UniProt P30128: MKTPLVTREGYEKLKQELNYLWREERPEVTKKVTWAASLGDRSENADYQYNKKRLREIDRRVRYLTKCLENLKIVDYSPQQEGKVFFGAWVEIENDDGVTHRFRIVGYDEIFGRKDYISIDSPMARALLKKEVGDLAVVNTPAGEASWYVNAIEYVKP
# UniProt P32675: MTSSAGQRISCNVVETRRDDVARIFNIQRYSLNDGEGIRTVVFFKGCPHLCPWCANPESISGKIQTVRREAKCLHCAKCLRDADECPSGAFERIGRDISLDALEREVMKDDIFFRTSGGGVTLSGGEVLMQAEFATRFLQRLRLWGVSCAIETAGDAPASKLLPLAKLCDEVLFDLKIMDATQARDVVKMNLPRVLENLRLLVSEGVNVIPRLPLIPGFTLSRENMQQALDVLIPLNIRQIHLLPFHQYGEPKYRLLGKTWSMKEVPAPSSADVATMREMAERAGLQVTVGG
# UniProt P27833: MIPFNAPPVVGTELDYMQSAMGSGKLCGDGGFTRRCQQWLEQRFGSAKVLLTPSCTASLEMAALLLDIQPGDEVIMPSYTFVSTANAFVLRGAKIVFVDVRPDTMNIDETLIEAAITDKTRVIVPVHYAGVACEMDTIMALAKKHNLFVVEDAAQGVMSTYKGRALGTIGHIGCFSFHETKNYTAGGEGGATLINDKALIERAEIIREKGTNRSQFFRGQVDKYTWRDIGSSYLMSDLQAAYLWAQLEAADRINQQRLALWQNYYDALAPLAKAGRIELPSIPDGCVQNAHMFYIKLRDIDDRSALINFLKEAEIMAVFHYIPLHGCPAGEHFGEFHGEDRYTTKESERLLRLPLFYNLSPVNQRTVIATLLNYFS
# UniProt P33594: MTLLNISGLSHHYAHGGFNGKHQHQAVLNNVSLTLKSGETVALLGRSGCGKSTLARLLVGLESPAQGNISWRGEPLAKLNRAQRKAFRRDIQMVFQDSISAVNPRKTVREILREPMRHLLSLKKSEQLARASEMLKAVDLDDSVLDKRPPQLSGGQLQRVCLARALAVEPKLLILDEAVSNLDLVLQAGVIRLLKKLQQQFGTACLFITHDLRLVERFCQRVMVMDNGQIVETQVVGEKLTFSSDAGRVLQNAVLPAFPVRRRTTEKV
# UniProt P31142: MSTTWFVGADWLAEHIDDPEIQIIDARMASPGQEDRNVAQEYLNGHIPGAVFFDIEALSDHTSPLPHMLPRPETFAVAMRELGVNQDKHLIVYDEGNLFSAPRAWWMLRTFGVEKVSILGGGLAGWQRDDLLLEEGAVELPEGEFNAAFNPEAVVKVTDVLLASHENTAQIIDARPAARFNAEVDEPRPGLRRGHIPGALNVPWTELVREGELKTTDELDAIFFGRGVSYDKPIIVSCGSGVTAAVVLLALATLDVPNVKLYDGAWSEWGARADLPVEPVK
# UniProt P31660: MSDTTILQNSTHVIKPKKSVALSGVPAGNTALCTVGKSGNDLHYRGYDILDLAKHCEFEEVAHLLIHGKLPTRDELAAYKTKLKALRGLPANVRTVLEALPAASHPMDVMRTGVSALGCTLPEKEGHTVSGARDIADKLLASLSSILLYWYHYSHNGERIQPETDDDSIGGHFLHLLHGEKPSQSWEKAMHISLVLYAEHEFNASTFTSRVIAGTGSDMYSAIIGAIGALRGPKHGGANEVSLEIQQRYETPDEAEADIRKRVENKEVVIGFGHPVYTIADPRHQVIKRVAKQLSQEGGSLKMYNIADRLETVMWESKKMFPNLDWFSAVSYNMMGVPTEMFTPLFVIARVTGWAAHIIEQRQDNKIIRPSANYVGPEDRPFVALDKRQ
# UniProt P25524: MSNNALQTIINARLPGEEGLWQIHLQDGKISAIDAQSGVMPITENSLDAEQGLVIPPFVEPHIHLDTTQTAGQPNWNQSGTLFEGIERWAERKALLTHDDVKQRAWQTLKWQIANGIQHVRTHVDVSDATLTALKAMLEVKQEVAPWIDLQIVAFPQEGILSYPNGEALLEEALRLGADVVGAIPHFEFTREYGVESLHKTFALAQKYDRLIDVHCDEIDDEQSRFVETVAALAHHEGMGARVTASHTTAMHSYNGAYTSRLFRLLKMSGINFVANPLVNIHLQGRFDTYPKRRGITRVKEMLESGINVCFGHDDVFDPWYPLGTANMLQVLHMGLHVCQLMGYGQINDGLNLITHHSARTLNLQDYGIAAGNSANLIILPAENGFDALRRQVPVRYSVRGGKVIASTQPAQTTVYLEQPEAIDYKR
# UniProt P31469: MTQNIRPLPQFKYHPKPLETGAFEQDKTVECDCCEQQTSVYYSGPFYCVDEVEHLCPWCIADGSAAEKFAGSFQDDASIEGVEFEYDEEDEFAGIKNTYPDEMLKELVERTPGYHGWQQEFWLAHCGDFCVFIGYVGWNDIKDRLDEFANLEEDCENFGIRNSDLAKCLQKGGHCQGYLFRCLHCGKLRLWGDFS
# UniProt P27250: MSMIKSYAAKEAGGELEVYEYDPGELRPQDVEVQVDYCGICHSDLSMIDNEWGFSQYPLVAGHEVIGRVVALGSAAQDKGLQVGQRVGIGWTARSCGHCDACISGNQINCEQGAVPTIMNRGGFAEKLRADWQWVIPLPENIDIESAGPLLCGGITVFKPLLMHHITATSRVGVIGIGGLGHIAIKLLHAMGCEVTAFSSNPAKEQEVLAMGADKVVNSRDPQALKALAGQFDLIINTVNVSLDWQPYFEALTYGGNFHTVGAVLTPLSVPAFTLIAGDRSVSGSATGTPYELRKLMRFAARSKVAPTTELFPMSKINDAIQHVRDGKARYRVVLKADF
# UniProt P25519: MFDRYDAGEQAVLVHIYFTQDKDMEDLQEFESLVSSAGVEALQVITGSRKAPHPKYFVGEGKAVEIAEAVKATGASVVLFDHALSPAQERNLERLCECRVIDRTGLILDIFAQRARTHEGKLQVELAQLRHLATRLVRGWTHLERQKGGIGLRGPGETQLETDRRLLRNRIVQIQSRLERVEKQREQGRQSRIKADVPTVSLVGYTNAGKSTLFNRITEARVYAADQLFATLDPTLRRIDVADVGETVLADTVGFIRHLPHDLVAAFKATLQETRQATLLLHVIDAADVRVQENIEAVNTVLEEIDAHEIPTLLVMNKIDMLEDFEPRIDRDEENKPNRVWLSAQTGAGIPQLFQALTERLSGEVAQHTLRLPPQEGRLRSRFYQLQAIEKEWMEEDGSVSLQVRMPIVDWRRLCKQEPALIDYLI
# UniProt P26646: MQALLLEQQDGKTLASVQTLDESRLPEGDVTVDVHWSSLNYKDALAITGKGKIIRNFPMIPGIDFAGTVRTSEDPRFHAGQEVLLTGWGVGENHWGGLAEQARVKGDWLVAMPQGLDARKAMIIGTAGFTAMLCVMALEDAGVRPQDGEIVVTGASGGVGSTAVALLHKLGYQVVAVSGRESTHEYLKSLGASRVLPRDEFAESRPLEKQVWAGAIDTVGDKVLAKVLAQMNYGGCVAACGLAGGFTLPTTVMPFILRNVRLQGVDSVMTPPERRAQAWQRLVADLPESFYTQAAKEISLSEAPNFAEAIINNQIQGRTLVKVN
# UniProt P24255: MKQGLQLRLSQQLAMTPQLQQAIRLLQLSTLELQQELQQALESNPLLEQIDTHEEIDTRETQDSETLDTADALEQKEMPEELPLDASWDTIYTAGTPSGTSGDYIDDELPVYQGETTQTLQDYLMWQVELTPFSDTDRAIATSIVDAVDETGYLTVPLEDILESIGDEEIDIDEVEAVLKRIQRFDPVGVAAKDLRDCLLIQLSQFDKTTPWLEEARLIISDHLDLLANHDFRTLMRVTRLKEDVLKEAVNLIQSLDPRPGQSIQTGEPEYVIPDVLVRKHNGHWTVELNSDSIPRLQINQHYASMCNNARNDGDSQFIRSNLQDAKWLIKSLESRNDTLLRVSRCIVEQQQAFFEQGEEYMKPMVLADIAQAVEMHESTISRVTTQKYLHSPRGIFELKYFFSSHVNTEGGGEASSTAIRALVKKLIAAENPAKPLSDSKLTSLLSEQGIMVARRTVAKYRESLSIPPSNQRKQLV
# UniProt P33602: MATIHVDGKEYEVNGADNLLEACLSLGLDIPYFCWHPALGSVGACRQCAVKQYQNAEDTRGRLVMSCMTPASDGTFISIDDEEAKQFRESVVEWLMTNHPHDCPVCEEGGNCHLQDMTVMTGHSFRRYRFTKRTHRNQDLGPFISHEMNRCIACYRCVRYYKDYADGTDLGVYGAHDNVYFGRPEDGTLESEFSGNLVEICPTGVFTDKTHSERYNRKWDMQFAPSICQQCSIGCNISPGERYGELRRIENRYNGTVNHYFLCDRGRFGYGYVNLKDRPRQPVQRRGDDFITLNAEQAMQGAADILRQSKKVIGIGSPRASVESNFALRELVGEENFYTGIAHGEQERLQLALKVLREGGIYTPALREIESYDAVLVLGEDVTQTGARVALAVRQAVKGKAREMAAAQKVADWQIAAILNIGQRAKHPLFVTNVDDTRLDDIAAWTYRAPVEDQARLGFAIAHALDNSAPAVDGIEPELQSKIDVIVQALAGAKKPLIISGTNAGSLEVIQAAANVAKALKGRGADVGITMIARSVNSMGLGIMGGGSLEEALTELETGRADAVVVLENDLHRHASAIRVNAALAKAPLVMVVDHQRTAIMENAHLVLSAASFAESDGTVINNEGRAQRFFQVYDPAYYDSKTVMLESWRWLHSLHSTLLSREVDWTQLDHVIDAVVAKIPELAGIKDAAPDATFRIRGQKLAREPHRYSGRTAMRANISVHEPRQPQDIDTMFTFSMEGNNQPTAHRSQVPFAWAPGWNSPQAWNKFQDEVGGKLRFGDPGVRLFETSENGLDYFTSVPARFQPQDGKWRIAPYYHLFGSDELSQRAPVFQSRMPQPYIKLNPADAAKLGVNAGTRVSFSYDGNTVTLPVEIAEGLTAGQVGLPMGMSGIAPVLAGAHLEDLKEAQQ
# UniProt P28632: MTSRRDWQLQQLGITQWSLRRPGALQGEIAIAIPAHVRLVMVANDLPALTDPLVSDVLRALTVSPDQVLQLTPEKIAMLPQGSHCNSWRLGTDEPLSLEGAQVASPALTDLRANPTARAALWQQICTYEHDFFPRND
# UniProt P30138: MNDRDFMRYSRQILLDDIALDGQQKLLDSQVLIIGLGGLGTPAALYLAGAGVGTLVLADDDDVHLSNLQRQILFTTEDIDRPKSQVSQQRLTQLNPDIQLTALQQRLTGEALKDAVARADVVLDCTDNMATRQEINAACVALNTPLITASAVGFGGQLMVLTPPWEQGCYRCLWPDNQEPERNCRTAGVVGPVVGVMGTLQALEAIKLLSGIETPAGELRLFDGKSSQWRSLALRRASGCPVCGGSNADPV
# UniProt P24193: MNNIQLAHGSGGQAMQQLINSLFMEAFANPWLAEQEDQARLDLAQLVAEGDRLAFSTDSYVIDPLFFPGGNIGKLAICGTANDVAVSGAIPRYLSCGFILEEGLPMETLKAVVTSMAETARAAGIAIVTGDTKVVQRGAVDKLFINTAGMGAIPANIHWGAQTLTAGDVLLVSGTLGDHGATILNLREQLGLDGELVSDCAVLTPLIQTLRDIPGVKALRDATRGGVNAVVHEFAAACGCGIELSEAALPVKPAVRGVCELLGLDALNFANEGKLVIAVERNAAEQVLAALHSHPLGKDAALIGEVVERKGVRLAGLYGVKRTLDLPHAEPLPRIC
# Compound: CC1(C)S[C@@H]2[C@H](NC(=O)[C@H](N)c3ccccc3)C(=O)N2[C@H]1C(=O)O [ampicillin]
# Experiment: log2 fold change of tryptic peptide abundance, ligand vs vehicle (limited proteolysis) (log2 ratio); higher = more trypsin-susceptible (destabilized)
# Conditions: ligand concentration: 10 uM; sample: E. coli crude lysate
row,Target,log2 fold change
1,"UniProt P31545 (peptide sequence: FGLAPQMPK, peptide start residue: 147)",0.478
2,"UniProt P31449 (peptide sequence: FGYAPSAVLK, peptide start residue: 275)",-0.139
3,"UniProt P25536 (peptide sequence: IVTGIEEQR, peptide start residue: 27)",0.0207
4,"UniProt P33590 (peptide sequence: EKNGQPLR, peptide start residue: 356)",-0.307
5,"UniProt P32141 (peptide sequence: YTINDITR, peptide start residue: 4)",-0.24
6,"UniProt P26647 (peptide sequence: AHGTIAEVVNHFK, peptide start residue: 124)",0.744
7,"UniProt P28635 (peptide sequence: IVELEAPQLPR, peptide start residue: 179)",-0.328
8,"UniProt P30128 (peptide sequence: SENADYQYNKKR, peptide start residue: 43)",-0.552
9,"UniProt P25397 (peptide sequence: NAMSIANVER, peptide start residue: 61)",0.341
10,"UniProt P31554 (peptide sequence: RGNIMWENEFR, peptide start residue: 267)",-0.233
11,"UniProt P32675 (peptide sequence: LLVSEGVNVIPR, peptide start residue: 201)",-0.571
12,"UniProt P25534 (peptide sequence: KAPGVTLHCPDR, peptide start residue: 121)",-0.628
13,"UniProt P27833 (peptide sequence: ALIERAEIIREK, peptide start residue: 198)",-0.296
14,"UniProt P31680 (peptide sequence: MNLHGASR, peptide start residue: 87)",0.133
15,"UniProt P28634 (peptide sequence: WRVTDAGFEVFALEPR, peptide start residue: 220)",-0.333
16,"UniProt P33594 (peptide sequence: AVDLDDSVLDK, peptide start residue: 137)",-0.224
17,"UniProt P31142 (peptide sequence: ELGVNQDKHLIVYDEGNLFSAPR, peptide start residue: 81)",0.345
18,"UniProt P31134 (peptide sequence: LLLLDEPMGALDKK, peptide start residue: 170)",-0.251

# Part of the list above, as tab-separated lines:
row	Target	log2 fold change
3	UniProt P25536 (peptide sequence: IVTGIEEQR, peptide start residue: 27)	0.0207
8	UniProt P30128 (peptide sequence: SENADYQYNKKR, peptide start residue: 43)	-0.552
9	UniProt P25397 (peptide sequence: NAMSIANVER, peptide start residue: 61)	0.341
11	UniProt P32675 (peptide sequence: LLVSEGVNVIPR, peptide start residue: 201)	-0.571
12	UniProt P25534 (peptide sequence: KAPGVTLHCPDR, peptide start residue: 121)	-0.628
13	UniProt P27833 (peptide sequence: ALIERAEIIREK, peptide start residue: 198)	-0.296
14	UniProt P31680 (peptide sequence: MNLHGASR, peptide start residue: 87)	0.133
16	UniProt P33594 (peptide sequence: AVDLDDSVLDK, peptide start residue: 137)	-0.224
18	UniProt P31134 (peptide sequence: LLLLDEPMGALDKK, peptide start residue: 170)	-0.251

# Next part

row,Target,log2 fold change
1,"UniProt P27862 (peptide sequence: FITMLAHTDGVEAAK, peptide start residue: 22)",-0.0383
2,"UniProt P33224 (peptide sequence: HVFGNPLIQQPLMR, peptide start residue: 325)",0.4
3,"UniProt P31660 (peptide sequence: KSVALSGVPAGNTALCTVGK, peptide start residue: 18)",0.244
4,"UniProt P25524 (peptide sequence: WQIANGIQHVR, peptide start residue: 111)",-0.511
5,"UniProt P31469 (peptide sequence: NTYPDEMLK, peptide start residue: 97)",0.111
6,"UniProt P27250 (peptide sequence: VVALGSAAQDK, peptide start residue: 69)",0.254
7,"UniProt P25516 (peptide sequence: KTLGLTGEEK, peptide start residue: 823)",0.365
8,"UniProt P25519 (peptide sequence: MPIVDWR, peptide start residue: 406)",-0.115
9,"UniProt P26646 (peptide sequence: LGYQVVAVSGR, peptide start residue: 170)",0.114
10,"UniProt P24255 (peptide sequence: YRESLSIPPSNQR, peptide start residue: 461)",-0.328
11,"UniProt P33602 (peptide sequence: FQPQDGKWR, peptide start residue: 803)",-0.687
12,"UniProt P24192 (peptide sequence: IVYSPMDALK, peptide start residue: 121)",0.119
13,"UniProt P32670 (peptide sequence: NEHIPFDEK, peptide start residue: 527)",0.288
14,"UniProt P28632 (peptide sequence: RPGALQGEIAIAIPAHVR, peptide start residue: 21)",-0.935
15,"UniProt P30138 (peptide sequence: LLSGIETPAGELR, peptide start residue: 208)",0.169
16,"UniProt P24193 (peptide sequence: RTLDLPHAEPLPR, peptide start residue: 322)",0.222
17,"UniProt P24200 (peptide sequence: TLSQPEGSRKPVEVER, peptide start residue: 169)",-0.644

# Reference: the supplement of paper PMC12819154, “High-throughput peptide-centric local stability assay extends protein–ligand identification to membrane proteins, tissues and bacteria” (Nature Structural & Molecular Biology, 2025)
